# Values of other authors as cited in US20170210810A1, “BIOMARKER PROFILES FOR PREDICTING OUTCOMES OF CANCER THERAPY WITH ERBB3 INHIBITORS AND/OR CHEMOTHERAPIES” (Merrimack Pharmaceuticals, Inc., priority 2013, published 2017).
# Conditions: cited from earlier work
structure (smiles),measurement,value
"CC(=O)O[C@H]1C(=O)[C@@]2(C)[C@H]([C@H](OC(=O)c3ccccc3)[C@]3(O)C[C@H](OC(=O)[C@H](O)[C@@H](NC(=O)c4ccccc4)c4ccccc4)C(C)=C1C3(C)C)[C@]1(OC(C)=O)CO[C@@H]1C[C@@H]2O [paclitaxel, Paclitaxel, reference compound]",solubility in water,insoluble
